Laboratory results: PubChem BioAssay AID1508597 (Cure First, 2020)
Here is one part, drawn at random, of about 2,100 reagents. 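Calls flag viability under 80% in either arm, not effects specific to rucaparib; the reference for percent is not stated.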 Unmarked entries are inactive. Not stated in the record: the 100% reference.

Screen: 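Survival screen with siRNA in ovarian cancer cells derived from patients, with or without rucaparib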 (primary screen)
Cells: human ovarian carcinoma lines grown from tumours: OCI-P5x (papillary serous) and OCI-C5x (clear cell)
Knock-down reagent: siRNA pool against human genes, 1.25 pmol siRNA per well
Timing: 72 h or 96 h, depending on the cell culture
Conditions: rucaparib 20 µM (about IC30) or vehicle, present until read-out
Read-out: 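Luminescent ATP-based viability assay read 72 or 96 h after transfection, depending on culture, given as normalised percent viability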
Direction: viability, normalised: higher = more viable cells remaining
Rule for the call: 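a well counts as a hit if its normalised viability is under 80 percent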
Calls: active = viability under 80%; inactive = viability 80% or more

target gene	rucaparib or vehicle	cell line	technical replicate	viability, normalised (%)
RAD9A (RAD9 checkpoint clamp component A)	Rucaparib	OCI-C5x (clear cell)	1	55.2 (active)
RAD9A (RAD9 checkpoint clamp component A)	Rucaparib	OCI-C5x (clear cell)	2	33.5 (active)
RAD9A (RAD9 checkpoint clamp component A)	Rucaparib	OCI-C5x (clear cell)	3	48.4 (active)
RAD9A (RAD9 checkpoint clamp component A)	Rucaparib	OCI-P5x (serous)	1	92
RAD9A (RAD9 checkpoint clamp component A)	Rucaparib	OCI-P5x (serous)	2	117
RAD9A (RAD9 checkpoint clamp component A)	Rucaparib	OCI-P5x (serous)	3	70.2 (active)
RAD9A (RAD9 checkpoint clamp component A)	Vehicle	OCI-C5x (clear cell)	1	40.9 (active)
RAD9A (RAD9 checkpoint clamp component A)	Vehicle	OCI-C5x (clear cell)	2	49 (active)
RAD9A (RAD9 checkpoint clamp component A)	Vehicle	OCI-C5x (clear cell)	3	37.5 (active)
RAD9A (RAD9 checkpoint clamp component A)	Vehicle	OCI-P5x (serous)	1	77.8 (active)
RAD9A (RAD9 checkpoint clamp component A)	Vehicle	OCI-P5x (serous)	2	72.7 (active)
RAD9A (RAD9 checkpoint clamp component A)	Vehicle	OCI-P5x (serous)	3	107
TREX1 (three prime repair exonuclease 1)	Rucaparib	OCI-C5x (clear cell)	1	51.4 (active)
TREX1 (three prime repair exonuclease 1)	Rucaparib	OCI-C5x (clear cell)	2	43 (active)
TREX1 (three prime repair exonuclease 1)	Rucaparib	OCI-C5x (clear cell)	3	46.6 (active)
TREX1 (three prime repair exonuclease 1)	Rucaparib	OCI-P5x (serous)	1	67.1 (active)
TREX1 (three prime repair exonuclease 1)	Rucaparib	OCI-P5x (serous)	2	93.6
TREX1 (three prime repair exonuclease 1)	Rucaparib	OCI-P5x (serous)	3	61.1 (active)
TREX1 (three prime repair exonuclease 1)	Vehicle	OCI-C5x (clear cell)	1	43.9 (active)
TREX1 (three prime repair exonuclease 1)	Vehicle	OCI-C5x (clear cell)	2	40.6 (active)
TREX1 (three prime repair exonuclease 1)	Vehicle	OCI-C5x (clear cell)	3	43.4 (active)
TREX1 (three prime repair exonuclease 1)	Vehicle	OCI-P5x (serous)	1	73.8 (active)
TREX1 (three prime repair exonuclease 1)	Vehicle	OCI-P5x (serous)	2	88.5
TREX1 (three prime repair exonuclease 1)	Vehicle	OCI-P5x (serous)	3	58.5 (active)

An excerpt taken from the entries so far, for reference:
target gene	rucaparib or vehicle	cell line	technical replicate	viability, normalised (%)
RAD9A (RAD9 checkpoint clamp component A)	Rucaparib	OCI-C5x (clear cell)	1	55.2 (active)
RAD9A (RAD9 checkpoint clamp component A)	Rucaparib	OCI-C5x (clear cell)	2	33.5 (active)
